# Measurements: the supplement of paper PMC6411743
# Amino acid sequences for entries named in this document (tags omitted). A change or cut given only in a name is not applied to a line headed by its entry.
# UniProt Q9H8G2: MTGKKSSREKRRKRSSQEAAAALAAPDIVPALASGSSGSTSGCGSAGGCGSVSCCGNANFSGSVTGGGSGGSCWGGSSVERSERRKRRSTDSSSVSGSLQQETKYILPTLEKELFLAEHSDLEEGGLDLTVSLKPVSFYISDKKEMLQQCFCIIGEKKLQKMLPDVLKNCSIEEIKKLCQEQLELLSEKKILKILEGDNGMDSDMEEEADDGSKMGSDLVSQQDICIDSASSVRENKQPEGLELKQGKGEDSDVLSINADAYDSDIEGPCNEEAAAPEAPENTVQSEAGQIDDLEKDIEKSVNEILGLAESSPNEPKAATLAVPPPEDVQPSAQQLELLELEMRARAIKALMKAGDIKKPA
# UniProt Q9HCI7: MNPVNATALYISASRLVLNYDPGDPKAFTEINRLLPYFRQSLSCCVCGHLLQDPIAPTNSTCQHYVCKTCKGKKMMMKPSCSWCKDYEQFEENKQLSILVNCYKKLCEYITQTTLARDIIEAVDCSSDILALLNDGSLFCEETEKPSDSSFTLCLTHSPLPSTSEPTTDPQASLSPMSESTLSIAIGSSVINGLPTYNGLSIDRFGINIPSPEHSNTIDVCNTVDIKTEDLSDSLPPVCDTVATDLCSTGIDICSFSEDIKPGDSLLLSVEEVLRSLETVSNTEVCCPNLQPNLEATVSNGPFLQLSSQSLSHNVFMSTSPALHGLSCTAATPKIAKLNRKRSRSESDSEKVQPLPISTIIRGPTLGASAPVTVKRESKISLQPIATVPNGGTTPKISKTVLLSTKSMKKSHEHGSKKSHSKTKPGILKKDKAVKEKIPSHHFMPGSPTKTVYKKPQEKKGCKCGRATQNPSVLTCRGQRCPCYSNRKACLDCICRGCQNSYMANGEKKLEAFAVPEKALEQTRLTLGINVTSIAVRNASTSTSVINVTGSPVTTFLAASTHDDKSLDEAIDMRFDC
# UniProt Q9HA38: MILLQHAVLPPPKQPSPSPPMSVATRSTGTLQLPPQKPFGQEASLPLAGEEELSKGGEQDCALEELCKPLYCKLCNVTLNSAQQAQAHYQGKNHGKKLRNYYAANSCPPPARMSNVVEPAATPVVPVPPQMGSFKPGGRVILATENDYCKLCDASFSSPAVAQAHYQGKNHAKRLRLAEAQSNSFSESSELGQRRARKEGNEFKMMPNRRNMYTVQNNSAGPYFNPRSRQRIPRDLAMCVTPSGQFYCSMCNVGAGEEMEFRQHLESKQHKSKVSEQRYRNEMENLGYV
# UniProt Q9H1E3: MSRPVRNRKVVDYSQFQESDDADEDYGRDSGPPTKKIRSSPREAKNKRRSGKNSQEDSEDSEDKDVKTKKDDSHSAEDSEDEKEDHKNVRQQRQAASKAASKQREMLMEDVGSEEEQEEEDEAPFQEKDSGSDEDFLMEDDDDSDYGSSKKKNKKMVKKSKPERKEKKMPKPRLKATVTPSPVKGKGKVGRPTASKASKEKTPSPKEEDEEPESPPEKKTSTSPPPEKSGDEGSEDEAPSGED
# UniProt Q9H6E4: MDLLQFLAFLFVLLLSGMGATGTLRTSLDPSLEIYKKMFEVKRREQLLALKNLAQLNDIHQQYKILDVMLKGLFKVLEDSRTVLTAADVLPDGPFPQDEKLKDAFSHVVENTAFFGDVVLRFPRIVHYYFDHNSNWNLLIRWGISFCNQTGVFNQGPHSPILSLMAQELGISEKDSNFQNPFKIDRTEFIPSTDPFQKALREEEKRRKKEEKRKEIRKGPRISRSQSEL
# UniProt Q9H2J4: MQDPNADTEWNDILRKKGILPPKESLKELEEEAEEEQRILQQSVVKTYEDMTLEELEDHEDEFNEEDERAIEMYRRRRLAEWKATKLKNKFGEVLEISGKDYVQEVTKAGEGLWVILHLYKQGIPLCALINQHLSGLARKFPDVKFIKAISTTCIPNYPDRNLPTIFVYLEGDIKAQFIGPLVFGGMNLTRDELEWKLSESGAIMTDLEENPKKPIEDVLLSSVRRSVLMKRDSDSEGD
# UniProt Q9GZP4: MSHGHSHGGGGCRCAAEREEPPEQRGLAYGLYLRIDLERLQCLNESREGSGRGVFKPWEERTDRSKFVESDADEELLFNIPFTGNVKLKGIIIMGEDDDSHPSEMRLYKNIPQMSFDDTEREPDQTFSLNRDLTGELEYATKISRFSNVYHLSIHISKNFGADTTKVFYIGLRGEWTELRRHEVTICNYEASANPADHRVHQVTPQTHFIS
# UniProt Q9H0K6: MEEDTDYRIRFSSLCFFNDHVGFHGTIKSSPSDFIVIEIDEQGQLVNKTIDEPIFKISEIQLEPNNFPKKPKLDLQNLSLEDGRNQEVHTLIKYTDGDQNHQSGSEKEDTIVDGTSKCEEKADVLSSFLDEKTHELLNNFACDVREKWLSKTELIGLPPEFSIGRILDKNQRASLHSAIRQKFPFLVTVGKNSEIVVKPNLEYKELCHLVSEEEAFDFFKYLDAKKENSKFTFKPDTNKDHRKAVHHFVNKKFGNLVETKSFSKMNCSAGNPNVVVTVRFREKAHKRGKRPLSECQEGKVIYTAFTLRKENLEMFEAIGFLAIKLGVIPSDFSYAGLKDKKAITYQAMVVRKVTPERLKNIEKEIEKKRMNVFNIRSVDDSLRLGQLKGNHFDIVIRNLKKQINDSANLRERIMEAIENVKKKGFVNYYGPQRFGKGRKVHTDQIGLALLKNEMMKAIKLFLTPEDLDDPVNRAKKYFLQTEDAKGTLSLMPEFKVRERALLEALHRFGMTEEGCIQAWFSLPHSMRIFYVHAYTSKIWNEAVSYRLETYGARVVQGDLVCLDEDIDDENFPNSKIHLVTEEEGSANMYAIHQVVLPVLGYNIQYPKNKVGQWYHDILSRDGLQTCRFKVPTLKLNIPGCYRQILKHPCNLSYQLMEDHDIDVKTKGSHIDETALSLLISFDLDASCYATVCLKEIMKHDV
# UniProt Q9H6S0: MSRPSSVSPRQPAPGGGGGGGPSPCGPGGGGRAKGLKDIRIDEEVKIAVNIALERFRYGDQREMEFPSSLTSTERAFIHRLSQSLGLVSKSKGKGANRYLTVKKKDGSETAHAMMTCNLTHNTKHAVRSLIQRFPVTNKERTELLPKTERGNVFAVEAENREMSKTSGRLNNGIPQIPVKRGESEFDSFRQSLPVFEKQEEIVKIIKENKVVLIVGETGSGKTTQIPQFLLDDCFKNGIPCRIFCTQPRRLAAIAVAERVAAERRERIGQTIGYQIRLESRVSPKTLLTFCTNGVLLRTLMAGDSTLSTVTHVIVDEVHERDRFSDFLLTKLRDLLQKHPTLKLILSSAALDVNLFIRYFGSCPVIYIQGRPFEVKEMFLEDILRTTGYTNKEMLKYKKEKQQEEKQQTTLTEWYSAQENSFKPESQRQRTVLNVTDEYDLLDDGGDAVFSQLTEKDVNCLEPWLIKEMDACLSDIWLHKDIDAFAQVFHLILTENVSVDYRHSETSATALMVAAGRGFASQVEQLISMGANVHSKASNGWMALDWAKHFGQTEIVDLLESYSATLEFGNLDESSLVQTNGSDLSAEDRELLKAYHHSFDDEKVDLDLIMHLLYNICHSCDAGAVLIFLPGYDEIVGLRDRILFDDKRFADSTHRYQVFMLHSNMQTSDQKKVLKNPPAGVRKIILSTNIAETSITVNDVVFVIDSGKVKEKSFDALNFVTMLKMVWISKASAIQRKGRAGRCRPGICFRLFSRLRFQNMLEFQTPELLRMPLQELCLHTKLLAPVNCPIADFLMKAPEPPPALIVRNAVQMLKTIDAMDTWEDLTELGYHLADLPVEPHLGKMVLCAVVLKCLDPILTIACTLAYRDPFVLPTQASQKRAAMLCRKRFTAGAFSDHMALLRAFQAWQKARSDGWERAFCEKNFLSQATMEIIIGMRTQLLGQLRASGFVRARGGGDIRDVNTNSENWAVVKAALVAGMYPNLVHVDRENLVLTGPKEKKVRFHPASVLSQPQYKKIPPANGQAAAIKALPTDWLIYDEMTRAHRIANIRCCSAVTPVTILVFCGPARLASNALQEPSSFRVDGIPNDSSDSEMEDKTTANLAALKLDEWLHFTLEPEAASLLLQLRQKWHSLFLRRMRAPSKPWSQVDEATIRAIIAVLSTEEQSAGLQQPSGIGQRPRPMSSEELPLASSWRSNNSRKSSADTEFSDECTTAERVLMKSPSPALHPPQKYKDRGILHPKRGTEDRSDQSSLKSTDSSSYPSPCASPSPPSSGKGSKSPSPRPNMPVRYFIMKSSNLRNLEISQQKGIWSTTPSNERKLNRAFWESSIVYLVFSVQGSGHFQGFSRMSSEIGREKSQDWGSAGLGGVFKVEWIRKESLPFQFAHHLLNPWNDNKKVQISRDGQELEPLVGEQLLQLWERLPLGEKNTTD
# UniProt Q9H1C4: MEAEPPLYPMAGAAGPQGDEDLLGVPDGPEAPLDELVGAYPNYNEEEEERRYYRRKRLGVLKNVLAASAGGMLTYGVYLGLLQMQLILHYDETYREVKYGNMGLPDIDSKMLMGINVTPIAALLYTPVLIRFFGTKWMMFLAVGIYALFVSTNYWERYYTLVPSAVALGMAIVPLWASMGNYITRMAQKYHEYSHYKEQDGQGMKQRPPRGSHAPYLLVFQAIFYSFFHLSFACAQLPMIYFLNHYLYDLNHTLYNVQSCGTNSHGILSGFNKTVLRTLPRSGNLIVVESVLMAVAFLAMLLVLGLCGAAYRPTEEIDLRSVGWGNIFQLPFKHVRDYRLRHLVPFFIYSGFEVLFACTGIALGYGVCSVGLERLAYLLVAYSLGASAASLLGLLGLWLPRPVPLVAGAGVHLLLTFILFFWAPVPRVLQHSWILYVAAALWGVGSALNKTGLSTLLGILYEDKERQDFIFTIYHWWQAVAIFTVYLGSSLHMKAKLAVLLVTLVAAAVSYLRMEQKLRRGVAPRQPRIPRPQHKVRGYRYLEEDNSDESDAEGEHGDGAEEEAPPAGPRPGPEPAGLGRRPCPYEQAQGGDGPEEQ
# UniProt Q9HBL7: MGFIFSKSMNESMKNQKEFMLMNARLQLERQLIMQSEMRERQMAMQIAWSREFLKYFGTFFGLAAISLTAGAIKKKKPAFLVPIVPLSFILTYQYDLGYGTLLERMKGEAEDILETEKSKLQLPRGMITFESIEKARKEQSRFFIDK
# UniProt Q9HC16: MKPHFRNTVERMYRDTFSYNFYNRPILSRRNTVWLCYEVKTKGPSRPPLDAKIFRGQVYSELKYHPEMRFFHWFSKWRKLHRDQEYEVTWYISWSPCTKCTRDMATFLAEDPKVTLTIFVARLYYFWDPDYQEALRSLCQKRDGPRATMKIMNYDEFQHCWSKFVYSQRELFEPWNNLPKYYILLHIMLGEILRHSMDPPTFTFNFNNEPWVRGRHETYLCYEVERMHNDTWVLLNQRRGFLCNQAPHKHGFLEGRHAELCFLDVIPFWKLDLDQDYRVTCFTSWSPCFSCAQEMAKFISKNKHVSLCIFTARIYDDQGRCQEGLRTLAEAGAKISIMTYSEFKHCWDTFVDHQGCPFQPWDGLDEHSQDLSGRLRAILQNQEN
# UniProt Q9HD40: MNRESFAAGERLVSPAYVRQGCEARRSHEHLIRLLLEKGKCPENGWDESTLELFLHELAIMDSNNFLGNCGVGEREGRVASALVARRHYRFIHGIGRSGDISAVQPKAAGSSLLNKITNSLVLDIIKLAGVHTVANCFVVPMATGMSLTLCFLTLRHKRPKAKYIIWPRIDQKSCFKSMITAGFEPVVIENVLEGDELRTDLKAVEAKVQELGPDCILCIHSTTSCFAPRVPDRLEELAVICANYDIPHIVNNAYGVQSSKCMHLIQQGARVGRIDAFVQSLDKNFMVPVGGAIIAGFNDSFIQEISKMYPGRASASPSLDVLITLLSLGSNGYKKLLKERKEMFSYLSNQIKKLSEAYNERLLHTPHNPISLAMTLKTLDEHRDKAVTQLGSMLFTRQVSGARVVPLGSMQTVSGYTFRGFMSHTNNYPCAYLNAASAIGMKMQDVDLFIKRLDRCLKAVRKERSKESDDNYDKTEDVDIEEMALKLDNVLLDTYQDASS
# UniProt Q9H246: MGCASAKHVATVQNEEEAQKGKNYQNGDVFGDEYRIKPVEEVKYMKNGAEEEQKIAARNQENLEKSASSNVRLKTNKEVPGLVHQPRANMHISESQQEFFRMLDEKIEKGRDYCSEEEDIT
# UniProt Q9H9P8: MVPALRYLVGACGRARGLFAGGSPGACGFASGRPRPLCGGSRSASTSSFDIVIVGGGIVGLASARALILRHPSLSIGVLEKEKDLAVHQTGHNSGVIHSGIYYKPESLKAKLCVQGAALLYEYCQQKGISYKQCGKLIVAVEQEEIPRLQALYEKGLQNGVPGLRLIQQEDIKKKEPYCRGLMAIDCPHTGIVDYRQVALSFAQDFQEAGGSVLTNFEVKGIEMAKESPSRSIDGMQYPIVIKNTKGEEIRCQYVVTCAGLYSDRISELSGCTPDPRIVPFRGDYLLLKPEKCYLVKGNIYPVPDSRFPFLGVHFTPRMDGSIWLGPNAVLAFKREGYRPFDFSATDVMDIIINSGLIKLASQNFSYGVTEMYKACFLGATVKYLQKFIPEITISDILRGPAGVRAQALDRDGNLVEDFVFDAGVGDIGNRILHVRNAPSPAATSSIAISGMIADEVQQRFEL
# ± gives the standard deviation of the averaged measurements. Only a part is listed here, and it is no random draw.
# Compound: Nc1ncnc2c1ncn2[C@@H]1O[C@H](COP(=O)(O)OP(=O)(O)OP(=O)(O)O)[C@@H](O)[C@H]1O [adenosine triphosphate]
# Assay: NP40-soluble protein abundance relative to vehicle (solubility fold change) (ratio); higher = more soluble protein in presence of ATP
# In short: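 Across three independent experiments, values are fold changes against the detergent-processed vehicle for each replicate, based on vsn-normalised intensities. The samples were Jurkat crude lysate treated with eight concentrations (0.1 to 10 mM) for 10 min at room temperature and then 3 min at 37 °C. Lysate was solubilised with 0.8% NP40 and benzonase, ultracentrifuged, and the supernatant analysed by TMT-labelled LC-MS/MS.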
Target,NP40-soluble protein abundance (concentration: 1mM),NP40-soluble protein abundance (concentration: 2mM),NP40-soluble protein abundance (concentration: 4mM),NP40-soluble protein abundance (concentration: 6mM),NP40-soluble protein abundance (concentration: 8mM),NP40-soluble protein abundance (concentration: 10mM)
DSN1 (UniProt Q9H410),0.969 ± 0.028,0.971 ± 0.03,0.94 ± 0.02,0.967 ± 0.03,0.9344 ± 0.0049,0.944 ± 0.01
UniProt Q9H8G2,1.08 ± 0.076,1.13 ± 0.052,1.24 ± 0.067,1.32 ± 0.019,1.33 ± 0.047,1.37 ± 0.017
FTO (UniProt Q9C0B1),1.02 ± 0.054,0.997 ± 0.06,0.975 ± 0.046,0.989 ± 0.074,0.987 ± 0.053,0.972 ± 0.052
UniProt Q9HCI7 and related entries,1.31 ± 0.092,1.33 ± 0.15,1.35 ± 0.18,1.41 ± 0.092,1.43 ± 0.17,1.5 ± 0.13
ANKZF1 (UniProt Q9H8Y5),1.04 ± 0.036,1.04 ± 0.015,1.06 ± 0.027,1.03 ± 0.036,1.01 ± 0.033,1.02 ± 0.018
UniProt Q9HA38 and related entries,1.17 ± 0.049,1.25 ± 0.088,1.4 ± 0.019,1.42 ± 0.066,1.41 ± 0.047,1.45 ± 0.049
VPS33B (UniProt Q9H267),1.01 ± 0.085,1.01 ± 0.073,1.01 ± 0.06,0.967 ± 0.094,1.02 ± 0.025,0.989 ± 0.048
UniProt Q9HD26 and related entries,1.01 ± 0.044,0.98 ± 0.028,0.984 ± 0.045,0.965 ± 0.05,0.978 ± 0.038,0.952 ± 0.031
CCDC86 (UniProt Q9H6F5),1.121 ± 0.011,1.17 ± 0.047,1.25 ± 0.054,1.32 ± 0.022,1.23 ± 0.063,1.35 ± 0.073
NUCKS1 (UniProt Q9H1E3),0.815 ± 0.14,0.746 ± 0.058,0.607 ± 0.053,0.582 ± 0.057,0.504 ± 0.037,0.479 ± 0.074
CCDC134 (UniProt Q9H6E4),0.996 ± 0.059,1.01 ± 0.041,0.995 ± 0.049,0.966 ± 0.052,0.97 ± 0.049,0.929 ± 0.11
PDCL3 (UniProt Q9H2J4),0.9556 ± 0.0082,0.931 ± 0.053,0.917 ± 0.066,0.956 ± 0.07,0.963 ± 0.085,0.939 ± 0.069
UniProt Q9H8U3 and related entries,0.932 ± 0.033,0.915 ± 0.04,0.944 ± 0.022,0.967 ± 0.055,0.878 ± 0.049,0.901 ± 0.057
UniProt Q9GZP4,0.988 ± 0.045,0.991 ± 0.05,0.936 ± 0.066,0.993 ± 0.049,0.942 ± 0.067,0.93 ± 0.026
PUS7L (UniProt Q9H0K6),1.02 ± 0.12,1.02 ± 0.055,1.1 ± 0.098,1.07 ± 0.086,1.11 ± 0.13,1.07 ± 0.12
UniProt Q9H2P9 and related entries,0.973 ± 0.045,0.9495 ± 0.0053,0.92 ± 0.051,0.929 ± 0.041,0.941 ± 0.045,0.946 ± 0.022
PLEKHA3 (UniProt Q9HB20),1.01 ± 0.0094,1.09 ± 0.082,1 ± 0.074,0.996 ± 0.042,0.974 ± 0.11,0.939 ± 0.058

# Two entries drawn at random from the list so far:
Target,NP40-soluble protein abundance (concentration: 1mM),NP40-soluble protein abundance (concentration: 2mM),NP40-soluble protein abundance (concentration: 4mM),NP40-soluble protein abundance (concentration: 6mM),NP40-soluble protein abundance (concentration: 8mM),NP40-soluble protein abundance (concentration: 10mM)
DSN1 (UniProt Q9H410),0.969 ± 0.028,0.971 ± 0.03,0.94 ± 0.02,0.967 ± 0.03,0.9344 ± 0.0049,0.944 ± 0.01
UniProt Q9H8U3 and related entries,0.932 ± 0.033,0.915 ± 0.04,0.944 ± 0.022,0.967 ± 0.055,0.878 ± 0.049,0.901 ± 0.057

# (listing goes on)

Target,NP40-soluble protein abundance (concentration: 1mM),NP40-soluble protein abundance (concentration: 2mM),NP40-soluble protein abundance (concentration: 4mM),NP40-soluble protein abundance (concentration: 6mM),NP40-soluble protein abundance (concentration: 8mM),NP40-soluble protein abundance (concentration: 10mM)
YTHDC2 (UniProt Q9H6S0),1.33 ± 0.078,1.32 ± 0.039,1.37 ± 0.064,1.35 ± 0.096,1.47 ± 0.1,1.52 ± 0.056
EHD4 (UniProt Q9H223),1.02 ± 0.023,1.02 ± 0.02,1.01 ± 0.028,0.985 ± 0.042,0.996 ± 0.032,0.998 ± 0.063
WDR61 (UniProt Q9GZS3),1.04 ± 0.052,1.01 ± 0.04,1 ± 0.046,1.01 ± 0.039,1.04 ± 0.036,0.959 ± 0.026
UNC93B1 (UniProt Q9H1C4),1.1 ± 0.16,0.977 ± 0.032,1.16 ± 0.18,1.05 ± 0.11,1.12 ± 0.15,0.972 ± 0.036
TMEM168 (UniProt Q9H0V1),1.191 ± 0.0025,1.101 ± 0.0017,1.14 ± 0.11,1.09 ± 0.053,1.196 ± 0.0024,0.965 ± 0.14
UniProt Q9H7Z3 and related entries,1.04 ± 0.075,1.08 ± 0.038,1.131 ± 0.01,1.1 ± 0.061,1.17 ± 0.073,1.18 ± 0.022
UniProt Q9HD33 and related entries,1 ± 0.12,0.888 ± 0.17,0.887 ± 0.1,0.973 ± 0.33,0.851 ± 0.19,0.89 ± 0.14
PELI2 (UniProt Q9HAT8),0.98 ± 0.065,0.988 ± 0.056,1.01 ± 0.044,0.971 ± 0.043,0.988 ± 0.078,0.994 ± 0.045
UniProt Q9HBL7,1.03 ± 0.055,1.01 ± 0.049,1.03 ± 0.083,0.97 ± 0.048,1.02 ± 0.065,0.942 ± 0.043
UniProt Q9C0G0 and related entries,1.06 ± 0.13,0.954 ± 0.15,1.02 ± 0.089,0.955 ± 0.11,0.916 ± 0.062,0.962 ± 0.13
WDR13 (UniProt Q9H1Z4),1.06 ± 0.13,0.918 ± 0.16,0.958 ± 0.033,0.896 ± 0.11,0.992 ± 0.11,1.01 ± 0.041
APOBEC3G (UniProt Q9HC16),1.06 ± 0.12,1.05 ± 0.094,0.941 ± 0.15,1.05 ± 0.12,1.04 ± 0.16,1.06 ± 0.098
ACBD3 (UniProt Q9H3P7),1.02 ± 0.037,1.02 ± 0.024,1 ± 0.052,0.982 ± 0.084,1.01 ± 0.063,0.962 ± 0.026
UniProt Q9H2G2-2,0.949 ± 0.038,0.953 ± 0.025,0.92 ± 0.014,0.965 ± 0.014,0.914 ± 0.027,0.926 ± 0.015
SEPSECS (UniProt Q9HD40),0.953 ± 0.03,0.968 ± 0.045,1.03 ± 0.1,1 ± 0.052,0.988 ± 0.073,1 ± 0.099
UniProt Q9H246,1.11 ± 0.17,1.22 ± 0.089,1.11 ± 0.059,1.17 ± 0.15,1.07 ± 0.21,1.13 ± 0.093
L2HGDH (UniProt Q9H9P8),1.09 ± 0.058,1.1 ± 0.098,1.08 ± 0.072,1.09 ± 0.069,1.07 ± 0.068,1.09 ± 0.064
